Results deposited as PubChem BioAssay AID1224828 (NIAID, 2016)

Assay: 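Knock-downs that increase or decrease LPS-induced p65 nuclear translocation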 (primary screen)
Cells: mouse RAW264.7 G9 macrophage reporter cells (GFP-p65, Tnf promoter-mCherry)
Reagents: siRNA pool against mouse genes, 100 nM
Duration: 2 days siRNA transfection, then 40 min LPS before fixation
Treatment: LPS (Salmonella minnesota R595) at 10 ng/ml
Measurement: 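Imaged p65 nuclear translocation ratio, normalised to the plate median, converted to robust z-scores and averaged across two replicates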
Direction: p65 translocation robust z-score: higher = more nuclear NF-kappaB p65 after LPS than the plate median; nuclear/cytoplasmic p65 ratio: higher = more nuclear NF-kappaB p65
Hit rule: 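Active if robust z is above 3.3 (negative regulators) or below -1.56, the Tlr4 control median (positive regulators); activity score 50 or more; control wells not called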
Meaning of the calls: active = hit (p65 shift raised or lowered); inactive = no clear change
Shown is an unselected part of about 17,000 reagents. Over the whole deposit, 762 (4.5%) got an active call. 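Active calls include both raised and lowered p65 entry, mostly lowered; wells with fewer than 50 cells lack a z-score.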 Raw values are not corrected between plates. Entries without a mark were called inactive.

| gene knocked down | PubChem SID | p65 translocation robust z-score | nuclear/cytoplasmic p65 ratio, rep 1 | nuclear/cytoplasmic p65 ratio, rep 2 | low cell count flag |
| --- | --- | --- | --- | --- | --- |
| Or8g28 (GeneID 258499) | SID315480175 | 1.95 | 1.81 | 1.38 | enough cells to score |
| A530053G22Rik (GeneID 208079) | SID315477511 | 2.36 | 1.63 | 1.92 | enough cells to score |
| Ttc27 (GeneID 74196) | SID315474900 | 0.84 | 1.54 | 1.55 | enough cells to score |
| Hgfac (GeneID 54426) | SID315471237 | -0.52 | 1.39 | 1.29 | enough cells to score |
| St3gal4 (GeneID 20443) | SID315469237 | – | 1.52 | 1.33 | fewer than 50 cells per well; well left out of scoring |
| Krtap19-2 (GeneID 170651) | SID315477183 | -0.34 | 1.73 | 1.44 | enough cells to score |
| Mtif2 (GeneID 76784) | SID315475376 | -0.01 | 1.78 | 1.59 | enough cells to score |
| Hemk1 (GeneID 69536) | SID315473821 | – | 1.14 | 1.39 | fewer than 50 cells per well; well left out of scoring |
| Ripor1 (GeneID 75687) | SID315475178 | -0.98 | 1.23 | 1.05 | enough cells to score |
| Pkdcc (GeneID 106522) | SID315476544 | -0.08 | 1.66 | 1.38 | enough cells to score |
| Krt6b (GeneID 16688) | SID315467700 | – | 1.5 | 1.3 | fewer than 50 cells per well; well left out of scoring |
| Kdm5d (GeneID 20592) | SID315469333 | 0.53 | 1.69 | 1.45 | enough cells to score |
| Gpr162 (GeneID 14788) | SID315467016 | -1.27 | 1.33 | 1.4 | enough cells to score |
| Ppargc1a (GeneID 19017) | SID315468647 | -0.68 | 1.42 | 1.3 | enough cells to score |
| Ppargc1a (GeneID 19017) | SID315468648 | – | 1.46 | 1.52 | fewer than 50 cells per well; well left out of scoring |
| Eid3 (GeneID 66341) | SID315472374 | 2.76 | 1.73 | 1.8 | enough cells to score |
| Or4a2 (GeneID 258972) | SID315480586 | – | 1.68 | 1.45 | fewer than 50 cells per well; well left out of scoring |
| Hoxa7 (GeneID 15404) | SID315467256 | -0.74 | 1.25 | 1.36 | enough cells to score |
| Or5b95 (GeneID 258693) | SID315480345 | 0.34 | 1.61 | 1.51 | enough cells to score |
| Cdc7 (GeneID 12545) | SID315465892 | -0.53 | 1.66 | 1.28 | enough cells to score |
| Peg12 (GeneID 27412) | SID315470620 | -1.39 | 1.17 | 1.16 | enough cells to score |
| Serpinb12 (GeneID 71869) | SID315474356 | – | 1.4 | 1.27 | fewer than 50 cells per well; well left out of scoring |
| Ankrd34c (GeneID 330998) | SID315481631 | -0.75 | 1.47 | 1.42 | enough cells to score |
| Tmco4 (GeneID 77056) | SID315475443 | – | 1.34 | 1.28 | fewer than 50 cells per well; well left out of scoring |
| Srpk1 (GeneID 20815) | SID315469466 | -0.15 | 1.29 | 1.36 | enough cells to score |
| Synpo2 (GeneID 118449) | SID315477102 | -0.25 | 1.34 | 1.16 | enough cells to score |
| Odr4 (GeneID 226499) | SID315478504 | -1.94 (active) | 1.39 | 1.52 | enough cells to score |
| Cd247 (GeneID 12503) | SID315465861 | 1.47 | 1.68 | 1.55 | enough cells to score |
| Pdrg1 (GeneID 68559) | SID315473568 | 0.38 | 1.4 | 1.54 | enough cells to score |
| Cflar (GeneID 12633) | SID315465946 | – | 1.1 | 1.34 | fewer than 50 cells per well; well left out of scoring |
| Spns1 (GeneID 73658) | SID315474757 | – | 1.39 | 1.45 | fewer than 50 cells per well; well left out of scoring |
| Slitrk6 (GeneID 239250) | SID315479430 | – | 1.64 | 1.32 | fewer than 50 cells per well; well left out of scoring |
| Rtn4rl2 (GeneID 269295) | SID315480845 | -0.46 | 1.48 | 1.43 | enough cells to score |
| 9530056K15Rik (GeneID 320650) | SID315481361 | 0.97 | 1.48 | 1.68 | enough cells to score |
| Agl (GeneID 77559) | SID315475477 | 0.36 | 1.68 | 1.66 | enough cells to score |
| Ttc23 (GeneID 67009) | SID315472774 | – | 1.15 | 1.37 | fewer than 50 cells per well; well left out of scoring |
| Spg7 (GeneID 234847) | SID315471771 | 1.28 | 1.7 | 2.09 | enough cells to score |
| Spg7 (GeneID 234847) | SID315479204 | 0.19 | 1.52 | 1.64 | enough cells to score |
| Tnni3k (GeneID 435766) | SID315481967 | 0.9 | 1.84 | 1.54 | enough cells to score |
| Prpf3 (GeneID 70767) | SID315474123 | 0.43 | 1.52 | 1.2 | enough cells to score |
| Atp5f1e (GeneID 67126) | SID315472852 | – | 1.38 | 1.34 | fewer than 50 cells per well; well left out of scoring |
| Tomm6 (GeneID 66119) | SID315472226 | 0.99 | 1.73 | 1.53 | enough cells to score |
| Zcchc3 (GeneID 67917) | SID315473309 | 5.11 (active) | 1.95 | 2.14 | enough cells to score |
| Ggn (GeneID 243897) | SID315479716 | – | 1.04 | 1.3 | fewer than 50 cells per well; well left out of scoring |
| Psmd12 (GeneID 66997) | SID315472766 | – | 1.58 | 1.26 | fewer than 50 cells per well; well left out of scoring |
| Oas1h (GeneID 246729) | SID315479889 | -0.02 | 1.71 | 1.52 | enough cells to score |
| Scarb1 (GeneID 20778) | SID315469458 | -0.36 | 1.44 | 1.49 | enough cells to score |
| Prm3 (GeneID 19120) | SID315468709 | -1.07 | 1.24 | 1.09 | enough cells to score |
| Ccdc174 (GeneID 232236) | SID315478972 | 1.52 | 1.63 | 1.74 | enough cells to score |
| B4galt1 (GeneID 14595) | SID315466893 | 0.1 | 1.65 | 1.61 | enough cells to score |
| Snx6 (GeneID 72183) | SID315474488 | 0.34 | 1.32 | 1.27 | enough cells to score |
| Carnmt1 (GeneID 67383) | SID315472990 | 0.6 | 1.54 | 1.48 | enough cells to score |
| Akap19 (GeneID 67080) | SID315472823 | – | 1.76 | 1.91 | fewer than 50 cells per well; well left out of scoring |
| Dnajc6 (GeneID 72685) | SID315474604 | 0.86 | 1.58 | 1.45 | enough cells to score |
| Mtrf1 (GeneID 211253) | SID315477673 | -0.45 | 1.69 | 1.55 | enough cells to score |
| Actl11 (GeneID 67722) | SID315473189 | – | 1.24 | 1.22 | fewer than 50 cells per well; well left out of scoring |
| Mbnl2 (GeneID 105559) | SID315476496 | -1.82 (active) | 1.43 | 1.25 | enough cells to score |
| Zfp804a (GeneID 241514) | SID315479571 | 1.57 | 1.64 | 1.59 | enough cells to score |
| 2310022B05Rik (GeneID 69551) | SID315473829 | – | 1.19 | 1.31 | fewer than 50 cells per well; well left out of scoring |
| Pcgf2 (GeneID 22658) | SID315470095 | 0.58 | 1.51 | 1.68 | enough cells to score |
| Adnp (GeneID 11538) | SID315465315 | – | 1.32 | 1.51 | fewer than 50 cells per well; well left out of scoring |
| Zfp944 (GeneID 319615) | SID315481133 | – | 1.36 | 1.47 | fewer than 50 cells per well; well left out of scoring |
| Tmem63c (GeneID 217733) | SID315478149 | 1.3 | 1.61 | 1.71 | enough cells to score |
| Ccni (GeneID 12453) | SID315465822 | -1.03 | 1.24 | 1.33 | enough cells to score |
| Vav3 (GeneID 57257) | SID315471732 | -0.11 | 1.52 | 1.51 | enough cells to score |
| Pcyt2 (GeneID 68671) | SID315473600 | 0.47 | 1.5 | 1.24 | enough cells to score |
| Btbd1 (GeneID 83962) | SID315475880 | -0.2 | 1.37 | 1.53 | enough cells to score |
| Czib (GeneID 74098) | SID315474843 | 0.23 | 1.51 | 1.54 | enough cells to score |
| Or5ak23 (GeneID 258427) | SID315480109 | -0.79 | 1.29 | 1.19 | enough cells to score |
| Fstl3 (GeneID 83554) | SID315475836 | 0.34 | 1.46 | 1.43 | enough cells to score |
| Dcbld1 (GeneID 66686) | SID315472584 | -0.46 | 1.46 | 1.52 | enough cells to score |
| Dus4l (GeneID 71916) | SID315474378 | -1.22 | 1.2 | 1.22 | enough cells to score |
| Mon2 (GeneID 67074) | SID315472819 | – | 1.29 | 1.28 | fewer than 50 cells per well; well left out of scoring |
| Skint3 (GeneID 195564) | SID315477465 | -0.78 | 1.34 | 1.42 | enough cells to score |
| Isg20 (GeneID 57444) | SID315471797 | -1.04 | 1.4 | 1.19 | enough cells to score |

Sorted by “nuclear/cytoplasmic p65 ratio, rep 2” (descending): 13 of the entries above
| gene knocked down | PubChem SID | p65 translocation robust z-score | nuclear/cytoplasmic p65 ratio, rep 1 | nuclear/cytoplasmic p65 ratio, rep 2 | low cell count flag |
| --- | --- | --- | --- | --- | --- |
| Tmem63c (GeneID 217733) | SID315478149 | 1.3 | 1.61 | 1.71 | enough cells to score |
| Pcgf2 (GeneID 22658) | SID315470095 | 0.58 | 1.51 | 1.68 | enough cells to score |
| Czib (GeneID 74098) | SID315474843 | 0.23 | 1.51 | 1.54 | enough cells to score |
| Btbd1 (GeneID 83962) | SID315475880 | -0.2 | 1.37 | 1.53 | enough cells to score |
| Dcbld1 (GeneID 66686) | SID315472584 | -0.46 | 1.46 | 1.52 | enough cells to score |
| Adnp (GeneID 11538) | SID315465315 | – | 1.32 | 1.51 | fewer than 50 cells per well; well left out of scoring |
| Vav3 (GeneID 57257) | SID315471732 | -0.11 | 1.52 | 1.51 | enough cells to score |
| Zfp944 (GeneID 319615) | SID315481133 | – | 1.36 | 1.47 | fewer than 50 cells per well; well left out of scoring |
| Fstl3 (GeneID 83554) | SID315475836 | 0.34 | 1.46 | 1.43 | enough cells to score |
| Ccni (GeneID 12453) | SID315465822 | -1.03 | 1.24 | 1.33 | enough cells to score |
| Pcyt2 (GeneID 68671) | SID315473600 | 0.47 | 1.5 | 1.24 | enough cells to score |
| Dus4l (GeneID 71916) | SID315474378 | -1.22 | 1.2 | 1.22 | enough cells to score |
| Or5ak23 (GeneID 258427) | SID315480109 | -0.79 | 1.29 | 1.19 | enough cells to score |
